Consider 1 molecule from article PMC10400075.

The chains behind the UniProt entries cited, without tags or fusion partners.
UniProt Q9NFU0: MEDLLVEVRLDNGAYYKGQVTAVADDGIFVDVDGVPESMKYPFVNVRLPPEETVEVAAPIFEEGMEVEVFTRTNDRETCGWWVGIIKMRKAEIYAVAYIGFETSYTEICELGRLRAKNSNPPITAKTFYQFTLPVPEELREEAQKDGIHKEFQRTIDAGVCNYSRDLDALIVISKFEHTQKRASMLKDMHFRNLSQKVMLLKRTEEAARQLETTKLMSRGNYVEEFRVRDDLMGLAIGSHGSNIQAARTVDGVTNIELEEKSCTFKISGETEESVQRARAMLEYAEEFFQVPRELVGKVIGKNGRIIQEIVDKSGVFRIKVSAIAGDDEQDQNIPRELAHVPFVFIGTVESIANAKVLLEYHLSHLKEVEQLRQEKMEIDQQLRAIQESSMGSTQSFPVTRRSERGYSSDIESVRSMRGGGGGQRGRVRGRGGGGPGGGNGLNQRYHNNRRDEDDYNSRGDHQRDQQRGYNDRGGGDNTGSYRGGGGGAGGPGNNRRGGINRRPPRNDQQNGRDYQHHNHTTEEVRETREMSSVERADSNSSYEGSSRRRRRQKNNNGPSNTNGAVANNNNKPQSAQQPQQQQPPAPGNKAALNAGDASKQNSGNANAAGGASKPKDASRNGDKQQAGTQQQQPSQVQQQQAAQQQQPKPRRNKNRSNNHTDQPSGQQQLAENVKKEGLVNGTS

For assay [1], the target named is FMRP translation factor (D. melanogaster (endogenous in S2 and Kc cells)) (UniProt Q9NFU0). Put plainly: co-IP; cytoplasmic fraction of male S2 cells; IP with mouse anti-FMRP (5B6) magnetic beads, 1 hr at 4°C, washes in 50 mM Tris, 500 mM NaCl, 0.1% NP-40; western blot for CLAMP; IgG-mouse as negative control.
Assay [2] shares this target. Put plainly: condition: only cytoplasmic fraction of female Kc cells; co-IP; cytoplasmic fraction of female Kc cells; IP with mouse anti-FMRP (5B6) magnetic beads, 1 hr at 4°C, washes in 50 mM Tris, 500 mM NaCl, 0.1% NP-40; western blot for CLAMP; IgG-mouse as negative control.

No constants are given. Whether binding was seen depends on the method and setting. In cells and extracts the contact can be indirect. Some binding calls cover weakened binding; strength is not graded here.

B1: CLAMP (chromatin-linked adapter for MSL proteins) (protein, UniProt Q9V9N4 1-561)
chain: MEDLTKNIIFTNAINGQPATIQYQTADGTILKQPKIEGQKTEQQPTFYYTTNGNGGTVNLAQLATTDDNKTCYIAQPVGGYNYALVNGMPLNQGAALGIATVDAQGRIQIVNQNKPIAANTISNISFKCDVCSDMFPHLALLNAHKRMHTDGEQQQQQQHNAQAGGDSIAVVSAQGLVQAQNIIGNGQMGQIQIVSSDTLEPVQQSVMQQQQHESKASKCINCGSSMLQQSKRKGPKQVRCESCMQAEQTAQQQQQLFVAQDGQMAHPVQIISTTPQAQAQLQQIVAAQTGGTTPKREASSGSGHHPVKKRNSQQMTKCQKCNGSGVVLVGQHSHASHSGVGGSVKQSVTVKTENPSKPFSCNICGGLFSRYSSLWSHKKLHSGEKNYKCSICGLAFAKAVYLKNHARIHTGEKPYKCQTCGMQFSQSPHLKNHERTHSGERPYVCGVCDKGFARHATLWNHRRIHTGEKPYKCEICGSAFSQAAHLKNHAKVHSGEKPYKCEICSAAFADRFALKRHRGIHQKYGQTAPRQTSSDGMIVHKQEIPDMEDEAQQEVIIGGL
In the case of B1, the binding result in assay [1] is reported as “binds”; in assay [2], “no binding”.
